Measured values: PMC3448731
These are yes or no findings as the source states them, for the method shown. In cells and extracts the contact can be indirect. A result given as binding can be weak or reduced; the word gives no strength.

Target: T1, Aquaporin-1, endogenous in rat kidney cortex (rat (endogenous in kidney cortex)) (UniProt P29975)
T1 sequence: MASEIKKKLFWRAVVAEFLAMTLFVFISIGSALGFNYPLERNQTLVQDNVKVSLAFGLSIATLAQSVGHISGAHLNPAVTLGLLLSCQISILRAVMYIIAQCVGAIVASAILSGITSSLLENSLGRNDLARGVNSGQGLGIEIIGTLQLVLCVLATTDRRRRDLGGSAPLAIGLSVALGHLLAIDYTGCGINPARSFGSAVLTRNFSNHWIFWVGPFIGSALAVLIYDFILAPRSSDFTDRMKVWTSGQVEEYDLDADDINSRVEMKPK
Experiment: co-IP; rat kidney cortex lysate, 0.5 mg/ml; immunoprecipitated with anti-AQP1 or anti-MHC antibody and protein A-agarose, blotted with anti-MHC or anti-AQP1; IgG as negative control

- binding: binds
Substance: Myosin heavy chain, endogenous in rat kidney
